Assays:
[1] = Impedance study of corrosion inhibition, equivalent circuit model CPE with Diffusion; conditions: C-steel, 1M HCl, 298 K
Excerpt: (§1) In an embodiment, the thus formed CuL copper complex can undergo anticorrosion studies by adding the obtained CuL copper complex to hydrochloric acid (for example, at 1M) using a C-steel electrode.
(§2) The % inhibition of Spiro compounds SP34, SP37 and SP311 and their copper complexes for C-steel in hydrochloric acid solution (1M) were computed by Impedance and Polarization studies. The model used for the electrochemical equivalent circuit to fit the impedance for anticorrosion studies of Carbon steel (C-steel) by Spiro inhibitors was CPE with diffusion as shown in FIG. 7.

[2] = Polarization (Tafel) study of corrosion inhibition; conditions: C-steel, 1M HCl, 298 K; for θ: polarization
Excerpt: as §1, §2

[3] = Bode phase and Bode plots of a C-steel electrode; conditions: 1 M HCl; for Slope α: Bode plot

With `Cc1[nH]nnc1C(=O)[C@H]1[C@H](c2ccc(Cl)cc2Cl)C2CSCN2[C@]12C(=O)Nc1cc(Cl)ccc12` (stereo partly drawn) [SP 34, (3R,6'S,7′R)-6-chloro-7′-(2,4-dichlorophenyl)-6′-(5-methyl-1H-1,2,3-triazole-4-carbonyl)-1′,6′,7′,7a′-tetrahydro-3′H-spiro[indoline-3,5′-pyrrolo[1,2-c]thiazol]-2-one] the θ ([1]; 0.037 mM) was 0.825, the θ ([1]; 0.075 mM) was 0.942 and the θ ([1]; 0.112 mM) was 0.974. For the same molecule, the “Corrosion Rate” value ([2]; 0.037 mM) was 166.5 mpy, the Ecorr ([2]; 0.037 mM) was -360.4 mV and the βa ([2]; 0.037 mM) was 0.1677 V/decade. For the same molecule, the βc ([2]; 0.037 mM) was 0.2163 V/decade, the “Corrosion Rate” value ([2]; 0.075 mM) was 49.72 mpy and the Ecorr ([2]; 0.075 mM) was -385.6 mV. For the same molecule, the βa ([2]; 0.075 mM) was 0.1419 V/decade, the βc ([2]; 0.075 mM) was 0.1845 V/decade and the “Corrosion Rate” value ([2]; 0.112 mM) was 24.11 mpy. It also gave an Ecorr ([2]; 0.112 mM) of -392.9 mV, a βa ([2]; 0.112 mM) of 0.1291 V/decade and a βc ([2]; 0.112 mM) of 0.1924 V/decade. For the same molecule, the θ ([2]; 0.037 mM) was 0.905, the θ ([2]; 0.075 mM) was 0.971 and the θ ([2]; 0.112 mM) was 0.986. For the same molecule, the Frequency ([3]; 0.037 mM) was 315.50 Hz, the Phase angle ([3]; 0.037 mM) was −60.64 ° and the Frequency ([3]; 0.075 mM) was 505.50 Hz. For the same molecule, the Phase angle ([3]; 0.075 mM) was −64.02 °, the Frequency ([3]; 0.112 mM) was 315.50 Hz and the Phase angle ([3]; 0.112 mM) was −56.48 °. The “Slope α” value ([3]; 0.037 mM) was −0.6717, the “Slope α” value ([3]; 0.075 mM) was −0.7124 and the “Slope α” value ([3]; 0.112 mM) was −0.6321.
`Cc1[nH]nnc1C(=O)[C@H]1[C@H](c2cccc([N+](=O)[O-])c2)C2CSCN2[C@]12C(=O)Nc1cc(Cl)ccc12` (stereo partly drawn) [SP 37, (3R,6'S,7′R)-6-chloro-6′-(5-methyl-1H-1,2,3-triazole-4-carbonyl)-7′-(3-nitrophenyl)-1′,6′,7′,7a′-tetrahydro-3′H-spiro[indoline-3,5′-pyrrolo[1,2-c]thiazol]-2-one] gave a θ ([1]; 0.039 mM) of 0.212, a θ ([1]; 0.078 mM) of 0.469 and a θ ([1]; 0.117 mM) of 0.565. The “Corrosion Rate” value ([2]; 0.039 mM) was 889.1 mpy, the Ecorr ([2]; 0.039 mM) was −356.4 mV and the βa ([2]; 0.039 mM) was 0.2062 V/decade. The βc ([2]; 0.039 mM) was 0.2714 V/decade, the “Corrosion Rate” value ([2]; 0.078 mM) was 476.4 mpy and the Ecorr ([2]; 0.078 mM) was −365.3 mV. The βa ([2]; 0.078 mM) was 0.204 V/decade, the βc ([2]; 0.078 mM) was 0.2582 V/decade and the “Corrosion Rate” value ([2]; 0.117 mM) was 311.8 mpy. It also gave an Ecorr ([2]; 0.117 mM) of −409.6 mV, a βa ([2]; 0.117 mM) of 0.1768 V/decade and a βc ([2]; 0.117 mM) of 0.2218 V/decade. It also gave a θ ([2]; 0.039 mM) of 0.490, a θ ([2]; 0.078 mM) of 0.727 and a θ ([2]; 0.117 mM) of 0.821. It also gave a Frequency ([3]; 0.039 mM) of 198.60 Hz, a Phase angle ([3]; 0.039 mM) of −51.61 ° and a Frequency ([3]; 0.078 mM) of 158.40 Hz. It also gave a Phase angle ([3]; 0.078 mM) of −48.21 °, a Frequency ([3]; 0.117 mM) of 252.40 Hz and a Phase angle ([3]; 0.117 mM) of −55.42 °. For the same molecule, the “Slope α” value ([3]; 0.039 mM) was −0.5819, the “Slope α” value ([3]; 0.078 mM) was −0.5309 and the “Slope α” value ([3]; 0.117 mM) was −0.6332.
Molecule `Cc1[nH]nnc1C(=O)[C@H]1[C@H](c2cccc(Br)c2)C2CSCN2[C@]12C(=O)Nc1cc(Cl)ccc12` (stereo partly drawn) [SP 311, (3R,6'S,7′R)-7′-(3-bromophenyl)-6-chloro-6′-(5-methyl-1H-1,2,3-triazole-4-carbonyl)-1′,6′,7′,7a′-tetrahydro-3′H-spiro[indoline-3,5′-pyrrolo[1,2-c]thiazol]-2-one] has a θ ([1]; 0.036 mM) of 0.143, a θ ([1]; 0.073 mM) of 0.090 and a θ ([1]; 0.109 mM) of 0.629. For the same molecule, the “Corrosion Rate” value ([2]; 0.036 mM) was 2064 mpy, the Ecorr ([2]; 0.036 mM) was −326 mV and the βa ([2]; 0.036 mM) was 0.2462 V/decade. The βc ([2]; 0.036 mM) was 0.3398 V/decade, the “Corrosion Rate” value ([2]; 0.073 mM) was 1769 mpy and the Ecorr ([2]; 0.073 mM) was −340.6 mV. For the same molecule, the βa ([2]; 0.073 mM) was 0.236 V/decade, the βc ([2]; 0.073 mM) was 0.3194 V/decade and the “Corrosion Rate” value ([2]; 0.109 mM) was 374.9 mpy. The Ecorr ([2]; 0.109 mM) was −346.5 mV, the βa ([2]; 0.109 mM) was 0.1828 V/decade and the βc ([2]; 0.109 mM) was 0.247 V/decade. For the same molecule, the θ ([2]; 0.036 mM) was −0.015, the θ ([2]; 0.073 mM) was 0.130 and the θ ([2]; 0.109 mM) was 0.816. The Frequency ([3]; 0.036 mM) was 198.60 Hz, the Phase angle ([3]; 0.036 mM) was −43.50 ° and the Frequency ([3]; 0.073 mM) was 198.60 Hz. The Frequency ([3]; 0.109 mM) was 315.50 Hz, the Phase angle ([3]; 0.109 mM) was −53.23 ° and the “Slope α” value ([3]; 0.036 mM) was −0.4465. For the same molecule, the “Slope α” value ([3]; 0.073 mM) was −0.5577 and the “Slope α” value ([3]; 0.109 mM) was −0.5999.
